Test results: paper PMC6770663
Results are given in words; binding and its absence hold for the method and conditions named. Binding seen in cells or lysates may run through a third protein. Binding can be weak; no strength is given.

Molecular target: A-kinase anchoring protein Yotiao (AKAP9) (mouse (endogenous in heart))
Assay: co-IP; IP-AC assay: heart extracts from WT, IKs or IKs-AC9KO mice; IP with anti-Yotiao or anti-KCNQ1 against the corresponding IgG; AC activity in the immunoprecipitate measured after stimulation with 300 nM Gαs; AC9 identified by loss of the activity in AC9KO hearts

binding: binds
B1: adenylyl cyclase Type 9 (AC9) (enzyme, UniProt P51830 1-1353)
chain: MASSPHQQLLHHHSTEVSCDSSGDSNSVRVKINPKQLSSNTHPKHCKYSISSSCSSSGDSGGLPRRVGGGGRLRRQKKLPQLFERASSRWWDPKFDSMNLEEACLERCFPQTQRRFRYALFYVGFACLLWSIYFAVHMKSKVIVMVVPALCFLVVCVGFFLFTFTKLYARHYAWTSLALTLLVFALTLAAQFQVWTPLSGRVDSSNHTLTATPADTCLSQVGSFSICIEVLLLLYTVMQLPLYLSLFLGVVYSVLFETFGYHFRNEDCYPSPGPGALHWELLSRALLHVCIHAIGIHLFVMSQVRSRSTFLKVGQSIMHGKDLEVEKALKERMIHSVMPRIIADDLMKQGDEESENSVKRHATSSPKNRKKKSSIQKAPIAFRPFKMQQIEEVSILFADIVGFTKMSANKSAHALVGLLNDLFGRFDRLCEQTKCEKISTLGDCYYCVAGCPEPRADHAYCCIEMGLGMIKAIEQFCQEKKEMVNMRVGVHTGTVLCGILGMRRFKFDVWSNDVNLANLMEQLGVAGKVHISEATAKYLDDRYEMEDGRVIERLGQSVVADQLKGLKTYLISGQRAKESHCSCAEALLSGFEVIDDSRESSGPRGQGTASPGSVSDLAQTVKTFDNLKTCPSCGITFAPKSEAGAEGGTVQNGCQDEPKTSTKASGGPNSKTQNGLLSPPAEEKLTNSQTSLCEILQEKGRWAGVSLDQSALLPLRFKNIREKTDAHFVDVIKEDSLMKDYFFKPPINQFSLNFLDQELERSYRTSYQEEVIKNSPVKTFASATFSSLLDVFLSTTVFLILSITCFLKYGATATPPPPAALAVFGADLLLEVLSLIVSIRMVFFLEDVMTCTKWLLEWIAGWLPRHCIGAILVSLPALAVYSHITSEFETNIHVTMFTGSAVLVAVVHYCNFCQLSSWMRSSLATIVGAGLLLLLHISLCQDSSIVMSPLDSAQNFSAQRNPCNSSVLQDGRRPASLIGKELILTFFLLLLLVWFLNREFEVSYRLHYHGDVEADLHRTKIQSMRDQADWLLRNIIPYHVAEQLKVSQTYSKNHDSGGVIFASIVNFSEFYEENYEGGKECYRVLNELIGDFDELLSKPDYNSIEKIKTIGATYMAASGLNTAQCQEGGHPQEHLRILFEFAKEMMRVVDDFNNNMLWFNFKLRVGFNHGPLTAGVIGTTKLLYDIWGDTVNIASRMDTTGVECRIQVSEESYRVLSKMGYDFDYRGTVNVKGKGQMKTYLYPKCTDNGVVPQHQLSISPDIRVQVDGSIGRSPTDEIANLVPSVQYSDKASLGSDDSTQAKEARLSSKRSWREPVKAEERFPFGKAIEKDSCEDIGVEEASELSKLNVSKSV
